Measurements from patent publication US20060193893A1, “Medical devices” (ChemGenex Pharmaceuticals, Inc., priority 2005, published 2006).
At least one structure is not confirmed: it was looked up by name or label, or the drawing left a doubt.

Test system: chorioallantoic membrane (CAM)
Assay: Effects of homoharringtonine in the early chicken chorioallantoic membrane (CAM) assay
Assay type: in vivo
Procedure: Fertilized chicken eggs (HiChick Breeding Co, Kapunda, South Australia) were incubated for three days at 38° C. On Day 3 the embryos were cracked out of the egg and into a cup made of plastic piping, with plastic film stretched over the top to form a hammock for the egg to be suspended in. Two ml of DMEM containing penicillin and streptomycin was added to each cup prior to the egg being added. A Petri dish on the top maintained sterility. Incubation continued in a humidified 37° C. incubator.
On Day 4 the chorioallantoic membrane (CAM) begins to grow, and pictures were taken of each embryo at ×5 to measure the CAM area using image analysis software (Video Pro 32, Leading Edge Pty Ltd, South Australia). Embryos were then grouped according to their CAM area, with a control embryo in each for comparison. There were four matched embryos, treated with 6.25, 12.5 and 25 ng of homoharringtonine. Grouping is critical as in these early developmental stages changes in the CAM growth are dramatic. […]
On Day 5 skim milk with contrast medium was injected into the CAM. […] Quantitative measurements were made from ×5 pictures. CAM area, and vein and artery lengths were measured using image analysis (Video Pro 32, Leading Edge Pty Ltd, South Australia). Relative vessel lengths were then calculated as the total length/CAM area. […]

Q: Which results are given for `COC(=O)C[C@](O)(CCCC(C)(C)O)C(=O)O[C@@H]1C(OC)=C[C@]23CCCN2CCc2cc4c(cc2[C@H]13)OCO4` [Homoharringtonine, cephalotaxine, 4-methyl-2-hydroxy-2-(4-hydroxy-4-methylpentyl) butanediocate ester]?
A: relative artery length, significance vs control (all three dose levels (6.25, 12.5, 25 ng), p<0.05): significantly reduced at all three dose levels; qualitative appearance of CAM vessels (FIG. 4) (lowest dose (6.25 ng)): the CAM is smaller and the normal vessel organization disturbed
